The list shows a part of the results. These are further read-outs of the screen, such as a control signal, another cell line or another target. No call is given for them.
experiment: quenchers of FAM-labeled RNA aptamer fluorescence, dose response, artefact control for GRK2 aptamer binding project, biochemical, powder set 1, flow cytometry (AID 588496); settings: Bead-bound FAM RNA aptamer fluorescence quenching, fluorescence change max-min concentration, stronger effect = higher value

SMILES | MCF span
CCOc1ccc(CCNC(=O)CCS(=O)(=O)c2ccc(Br)cc2)cc1OCC | 4.6
Cc1cc(=O)[nH]c(SCC(=O)NCc2ccco2)n1 | 0.5
COc1ccc(CCNC(=O)CCS(=O)(=O)c2ccc(Br)cc2)cc1OC | -1.8
COC(=O)c1ccccc1NC(=O)CCS(=O)(=O)c1ccc(Br)s1 | -0.5
Cc1ccccc1NC(=O)CCS(=O)(=O)c1ccc(Br)cc1 | 7.3
O=C(O)Cc1ccc(-n2cccc2)cc1 | 0.6
CCN(CC)c1ccc(NC(=O)CCS(=O)(=O)c2ccc(Br)cc2)c(C)c1 | -2.7
O=C(O)C1CC(=O)N(c2ccc3c(c2)OCCO3)C1 (stereo unspecified) | -0.4
O=C(CCS(=O)(=O)c1ccc(Br)cc1)NCc1cccs1 | 0
COc1ccc(CNC(=O)CCS(=O)(=O)c2ccc(Br)cc2)cc1 | 4.7
O=C(CCS(=O)(=O)c1ccc(Br)cc1)Nc1ccc(Br)cc1F | 4.2
CC(CS(=O)(=O)c1ccc2c(c1)NC(=O)CS2)C(=O)NCc1ccccc1Cl (stereo unspecified) | 0.5
Cc1cc2ccccc2n1CCNC(=O)c1cccs1 | 0.9
COC(=O)c1ccc(NC(=O)CCS(=O)(=O)c2ccc(Br)cc2)cc1 | -2.5
Cc1cccc(N2CCN(C(=O)CCS(=O)(=O)c3ccc(Br)cc3)CC2C)c1 (stereo unspecified) | -1.8
CCc1ccccc1NC(=O)CCS(=O)(=O)c1ccc(Br)cc1 | -0.6

A draw from above in order of molar mass, high to low:
SMILES | MCF span
COc1ccc(CCNC(=O)CCS(=O)(=O)c2ccc(Br)cc2)cc1OC | -1.8
CC(CS(=O)(=O)c1ccc2c(c1)NC(=O)CS2)C(=O)NCc1ccccc1Cl (stereo unspecified) | 0.5
COC(=O)c1ccccc1NC(=O)CCS(=O)(=O)c1ccc(Br)s1 | -0.5
COC(=O)c1ccc(NC(=O)CCS(=O)(=O)c2ccc(Br)cc2)cc1 | -2.5
Cc1ccccc1NC(=O)CCS(=O)(=O)c1ccc(Br)cc1 | 7.3
Cc1cc2ccccc2n1CCNC(=O)c1cccs1 | 0.9

The list goes on.

SMILES | MCF span
CCOc1ccccc1NC(=O)CCS(=O)(=O)c1ccc(Br)cc1 | 1.4
COc1ccc([N+](=O)[O-])cc1NC(=O)CCS(=O)(=O)c1ccc(Br)cc1 | -1.8
CCOc1ccc(NC(=O)CCS(=O)(=O)c2ccc(Br)cc2)cc1 | 3.1
CC(=O)N1CCN(Cc2nc3cc(Cl)ccc3c(=O)[nH]2)CC1 | 0.9
NS(=O)(=O)c1ccc(CCNC(=O)CCS(=O)(=O)c2ccc(Br)cc2)cc1 | -4.2
Cc1cccc(CCNC(=O)CCS(=O)(=O)c2ccc(Br)cc2)c1 | -1.8
O=C(CSc1nc2ccccc2c(=O)n1-c1ccccc1)NC(=O)CN1CCCC1=O | -1.6
O=C(CN1CCc2ccccc21)NC(=O)NCc1ccccc1 | -1.4
Cc1ccc(CCNC(=O)CCS(=O)(=O)c2ccc(Br)cc2)cc1 | 10.6
Cc1cc2ccccc2n1CCNC(=O)C(C)Oc1ccccc1 (stereo unspecified) | -2.5
COc1ccc(NC(=O)CCS(=O)(=O)c2ccc(Br)s2)cc1 | -1.5
Cc1ccccc1NC(=O)CCS(=O)(=O)c1ccc(Br)s1 | 1.3
C#CCSc1nc2sc3c(c2c(=O)n1C)CCC3 | 1.2
O=C(CCS(=O)(=O)c1ccc(Br)s1)Nc1ccccc1Br | 1.2
O=C(CCS(=O)(=O)c1ccc(Br)cc1)Nc1cc(F)ccc1F | -2
